Assay results as given in PubChem BioAssay AID1487 (National Center for Advancing Translational Sciences (NCATS), 2009).
The list shows a part of the results. These are further read-outs of the screen, such as a control signal, another cell line or another target. No call is given for them. Compounds called inactive in the main read-out are mostly missing here. The note in brackets gives the kind of curve behind each potency; many fits are weak.

Experiment: qHTS Assay for Modulators of Lamin A Splicing
Details: HeLa LMNA splicing GFP/RFP minigene ratio, 48 h
In short: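 S3 HeLa stable clones carrying a lamin A-EGFP splicing minigene plus DsRed2 were seeded at 600 cells/well in Opti-MEM with 2% FBS, pin-dosed and incubated 48 h at 37°C. Acumen cytometry (488 nm) gave the GFP/RFP total-intensity ratio.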

[1] = measured here: GFP splicing reporter channel
[2] = measured here: RFP viability control channel

Structure (SMILES) | AC50 [1] | AC50 [2]
NS(=O)(=O)c1ccc(CCNC(=O)C(=O)NCC2OCCN2C(=O)c2ccc3c(c2)OCO3)cc1 (stereo not given) | 0.0631 µM [rising, full curve, poor fit] | 
Cc1ccc(NC(=O)CN2CCCN(S(=O)(=O)c3ccc(Br)s3)CC2)cc1 | 12.6 µM [rising, single point] | 22.4 µM [rising, single point]
Cc1cc(C)cc(NC(=O)Nc2ccccc2OCc2cc(=O)n3ccccc3n2)c1 | 28.2 µM [falling, single point] | 35.5 µM [falling, single point]
COCCN1C(=O)/C(=C/c2cc3c(cc2Br)OCO3)NC1=S |  | 28.2 µM [falling, partial curve]
Cc1nc(CS(=O)(=O)c2ccc(Cl)cc2)cc(Sc2ccc(Cl)cc2)n1 |  | 14.1 µM [rising, partial curve, poor fit]
CCC1C(=O)NCCN1Cc1nc(-c2ccc(C)s2)oc1C (stereo not given) |  | 0.00316 µM [falling, full curve, poor fit]
CCOc1ccccc1NC(=O)c1c(NCc2cccs2)sc2c1CCCCC2 | 20 µM [falling, single point] | 
COC(=O)c1ccc(COc2cccc(C)c2C)cc1 | 0.01 µM [rising, full curve, poor fit] | 0.01 µM [rising, full curve, poor fit]
CCN(CC1COc2ccccc2O1)C(=S)NC1CC2CCC1C2 (stereo not given) |  | 8.91 µM [rising, partial curve]
COc1ccc(-c2csc(Nc3ccc(C)cn3)n2)cc1OC | 12.6 µM [falling, partial curve, poor fit] | 
COc1cccc(CNc2ccc(S(=O)(=O)Nc3nccs3)cc2)c1O | 12.6 µM [rising, single point] | 17.8 µM [rising, single point]
O=C(Nc1ccc2c(c1)C(=O)OC2)Nc1cccc2ccccc12 | 4.47 µM [falling, partial curve, poor fit] | 2 µM [falling, full curve, poor fit]
Clc1ccc(CSc2cc3c(nn2)-c2ccccc2CC3)cc1 | 14.1 µM [rising, single point] | 17.8 µM [rising, single point]
CCc1ccc(-n2c(SCc3ccccc3C)nc3[nH]ncc3c2=O)cc1 | 25.1 µM [falling, single point] | 35.5 µM [falling, single point]
O=C(CN1CCC(C(=O)c2ccc(F)cc2)CC1)Nc1ccccc1 | 28.2 µM [rising, single point] | 25.1 µM [rising, partial curve]
Cc1ccccc1[C@@H]1C(C#N)=C(N)S[C@H]1C(=O)c1ccccc1 |  | 35.5 µM [rising, single point]
Cc1ccccc1N1CCN(C(=S)c2ccccc2)CC1 | 35.5 µM [rising, single point] | 

Structure (SMILES) | AC50 [1] | AC50 [2]
CCN(CC)C(=O)c1ccc(S(=O)(=O)NCc2cccnc2)cc1 | 17.8 µM [rising, partial curve, poor fit] | 14.1 µM [rising, partial curve]
CCc1ccc(-c2nn(CC(=O)NCc3ccccc3)c3c2cnc2ccc(C)cc23)cc1 | 0.0158 µM [falling, full curve] | 0.0112 µM [falling, full curve, poor fit]
COc1ccc2[nH]c(C)c(CCNC(=S)Nc3ccccc3C)c2c1 | 14.1 µM [rising, single point] | 25.1 µM [rising, single point]
O=C(Cn1c(=O)n(Cc2ccco2)c(=O)c2ccccc21)Nc1cccc(Cl)c1 |  | 14.1 µM [rising, partial curve, poor fit]
O=C(CCS(=O)(=O)c1ccc(Cl)cc1)N1CCN(c2ccccc2F)CC1 | 12.6 µM [rising, partial curve, poor fit] | 14.1 µM [rising, partial curve]
O=c1c(-c2ccc3c(c2)OCCO3)c(C(F)(F)F)oc2cc(O)cc(O)c12 |  | 35.5 µM [rising, single point]
CC(C)Cn1c(N)c(C(=O)CCl)c(=O)n(C)c1=O | 11.2 µM [rising, partial curve] | 15.8 µM [rising, partial curve]
C=CCN=c1scc(-c2ccccc2)n1/N=C/c1ccccn1 |  | 2 µM [rising, full curve]
CCCCNC(=O)/C(C#N)=C/c1ccc(-c2ccc(S(=O)(=O)N3CCOCC3)cc2)o1 | 7.94 µM [rising, partial curve] | 11.2 µM [rising, single point]
O=C(Cn1cnc2c(cnn2-c2ccc(F)cc2)c1=O)N1CCN(c2ccccc2F)CC1 |  | 2.51 µM [rising, partial curve, poor fit]
CCOc1ccc(C(=O)Nc2ccccc2OCc2cc(=O)n3ccccc3n2)cc1 | 0.631 µM [falling, full curve, poor fit] | 
Cc1cc(C(=O)Nc2cccc(F)c2)c2c(C)nn(-c3cccc(Cl)c3C)c2n1 | 0.00447 µM [falling, full curve, poor fit] | 25.1 µM [falling, single point]
Cn1c(-[n+]2c(-c3ccccc3)cc(-c3ccccc3)cc2-c2ccccc2)nc2c([N+](=O)[O-])cccc21 | 11.2 µM [rising, partial curve] | 15.8 µM [rising, partial curve]
CCn1c(CCNC(=O)c2ccc(Cl)c(Cl)c2)nnc1SCCOc1ccc(OC)cc1 | 7.94 µM [rising, partial curve] | 10 µM [rising, partial curve]
CCc1ccc(-c2cn3c(n2)SCC3)cc1 |  | 14.1 µM [falling, single point]
CCN(CC)S(=O)(=O)c1ccc(NC(=S)NC(=O)CC(C)C)cc1 | 35.5 µM [rising, single point] | 

Quoted from the listing.
In AC50 [1], Cc1cc(C)cc(NC(=O)Nc2ccccc2OCc2cc(=O)n3ccccc3n2)c1 has 28.2 µM [falling, single point]
In AC50 [2], C=CCN=c1scc(-c2ccccc2)n1/N=C/c1ccccn1 has 2 µM [rising, full curve]
